Measured values published in the supplement of paper PMC10849652.
The other results are listed elsewhere or left out.

The chains behind the UniProt entries cited, without tags or fusion partners. Where a name states a change or a piece, a line headed by the entry shows the natural chain unless it says otherwise.
UniProt Q9NPA8: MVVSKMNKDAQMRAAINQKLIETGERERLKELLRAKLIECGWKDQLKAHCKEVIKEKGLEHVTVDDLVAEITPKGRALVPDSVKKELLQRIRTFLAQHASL
UniProt Q9UBQ5, whole entry, looked up: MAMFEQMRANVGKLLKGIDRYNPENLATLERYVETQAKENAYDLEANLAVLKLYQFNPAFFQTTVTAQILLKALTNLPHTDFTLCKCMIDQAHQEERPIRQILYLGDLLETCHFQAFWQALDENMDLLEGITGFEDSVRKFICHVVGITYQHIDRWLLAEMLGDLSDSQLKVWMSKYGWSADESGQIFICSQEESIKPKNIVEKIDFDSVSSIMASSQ
UniProt P32519: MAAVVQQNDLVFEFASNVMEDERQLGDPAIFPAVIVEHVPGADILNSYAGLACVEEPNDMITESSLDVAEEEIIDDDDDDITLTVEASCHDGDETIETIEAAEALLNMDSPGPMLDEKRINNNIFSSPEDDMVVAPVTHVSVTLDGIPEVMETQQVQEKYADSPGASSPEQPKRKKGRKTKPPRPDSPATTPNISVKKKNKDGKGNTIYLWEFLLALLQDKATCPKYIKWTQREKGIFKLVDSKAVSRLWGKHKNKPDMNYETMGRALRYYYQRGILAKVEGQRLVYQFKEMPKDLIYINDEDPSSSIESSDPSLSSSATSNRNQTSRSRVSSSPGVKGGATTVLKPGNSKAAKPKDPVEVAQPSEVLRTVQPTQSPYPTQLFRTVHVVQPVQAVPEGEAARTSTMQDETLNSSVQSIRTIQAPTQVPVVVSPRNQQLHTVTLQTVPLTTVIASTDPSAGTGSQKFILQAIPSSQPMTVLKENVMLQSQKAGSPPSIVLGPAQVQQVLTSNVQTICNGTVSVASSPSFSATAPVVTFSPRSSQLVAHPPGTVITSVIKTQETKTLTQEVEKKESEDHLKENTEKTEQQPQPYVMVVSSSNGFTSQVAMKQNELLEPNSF
UniProt Q12805: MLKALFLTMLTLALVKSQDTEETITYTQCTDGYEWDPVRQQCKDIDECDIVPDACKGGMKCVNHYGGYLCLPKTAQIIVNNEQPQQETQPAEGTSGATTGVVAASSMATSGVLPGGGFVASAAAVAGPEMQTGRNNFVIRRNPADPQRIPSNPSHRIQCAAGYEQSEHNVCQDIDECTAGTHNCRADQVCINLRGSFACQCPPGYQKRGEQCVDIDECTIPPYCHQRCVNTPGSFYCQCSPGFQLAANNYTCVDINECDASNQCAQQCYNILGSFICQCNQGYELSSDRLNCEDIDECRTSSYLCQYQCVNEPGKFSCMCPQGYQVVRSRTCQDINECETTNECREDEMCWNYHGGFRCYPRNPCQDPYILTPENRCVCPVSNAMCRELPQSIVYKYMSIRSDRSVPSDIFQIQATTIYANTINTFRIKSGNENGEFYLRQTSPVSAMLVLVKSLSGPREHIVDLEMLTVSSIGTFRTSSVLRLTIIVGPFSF
UniProt P68104, whole entry, looked up: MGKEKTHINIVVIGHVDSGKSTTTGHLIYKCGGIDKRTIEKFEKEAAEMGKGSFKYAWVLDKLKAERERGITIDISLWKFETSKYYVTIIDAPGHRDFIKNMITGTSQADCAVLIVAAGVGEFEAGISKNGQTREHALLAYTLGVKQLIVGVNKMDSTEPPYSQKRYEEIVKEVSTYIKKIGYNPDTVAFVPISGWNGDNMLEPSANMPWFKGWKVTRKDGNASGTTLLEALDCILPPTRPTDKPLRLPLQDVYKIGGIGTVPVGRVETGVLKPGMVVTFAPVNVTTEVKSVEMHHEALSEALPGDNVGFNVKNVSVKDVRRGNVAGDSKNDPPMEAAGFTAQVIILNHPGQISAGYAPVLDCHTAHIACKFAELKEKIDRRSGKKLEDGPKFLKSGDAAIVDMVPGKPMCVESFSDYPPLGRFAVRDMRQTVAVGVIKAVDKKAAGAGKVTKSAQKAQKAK
UniProt Q9NZJ5: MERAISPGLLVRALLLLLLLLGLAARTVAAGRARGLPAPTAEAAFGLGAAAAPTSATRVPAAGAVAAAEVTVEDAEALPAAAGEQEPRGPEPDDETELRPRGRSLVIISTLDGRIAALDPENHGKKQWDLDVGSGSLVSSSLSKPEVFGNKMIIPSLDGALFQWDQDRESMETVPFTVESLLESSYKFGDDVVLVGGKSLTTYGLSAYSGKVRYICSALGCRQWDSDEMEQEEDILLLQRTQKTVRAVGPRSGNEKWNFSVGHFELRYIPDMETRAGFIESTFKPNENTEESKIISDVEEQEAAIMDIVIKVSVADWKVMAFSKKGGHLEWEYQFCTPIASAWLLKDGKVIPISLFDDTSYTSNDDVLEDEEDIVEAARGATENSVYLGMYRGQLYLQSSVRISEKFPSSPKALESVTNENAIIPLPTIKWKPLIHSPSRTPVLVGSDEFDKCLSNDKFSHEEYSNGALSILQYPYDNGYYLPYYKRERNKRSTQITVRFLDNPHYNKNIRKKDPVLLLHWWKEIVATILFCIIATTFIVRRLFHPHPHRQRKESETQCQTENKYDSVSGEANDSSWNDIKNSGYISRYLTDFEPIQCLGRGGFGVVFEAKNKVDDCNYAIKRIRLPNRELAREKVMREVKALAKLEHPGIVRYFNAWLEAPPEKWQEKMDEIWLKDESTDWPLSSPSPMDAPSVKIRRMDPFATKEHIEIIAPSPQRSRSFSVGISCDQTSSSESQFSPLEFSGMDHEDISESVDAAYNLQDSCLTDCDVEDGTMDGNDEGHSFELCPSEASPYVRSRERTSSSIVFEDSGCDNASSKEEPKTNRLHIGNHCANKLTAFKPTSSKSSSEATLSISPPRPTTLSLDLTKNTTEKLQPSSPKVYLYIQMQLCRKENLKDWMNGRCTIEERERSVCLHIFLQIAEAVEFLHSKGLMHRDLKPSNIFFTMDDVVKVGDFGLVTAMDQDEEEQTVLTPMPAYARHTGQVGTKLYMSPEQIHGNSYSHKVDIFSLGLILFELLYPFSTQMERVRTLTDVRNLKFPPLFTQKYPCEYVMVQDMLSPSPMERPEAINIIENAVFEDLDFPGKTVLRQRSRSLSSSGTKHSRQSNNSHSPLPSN
UniProt Q9BUP0: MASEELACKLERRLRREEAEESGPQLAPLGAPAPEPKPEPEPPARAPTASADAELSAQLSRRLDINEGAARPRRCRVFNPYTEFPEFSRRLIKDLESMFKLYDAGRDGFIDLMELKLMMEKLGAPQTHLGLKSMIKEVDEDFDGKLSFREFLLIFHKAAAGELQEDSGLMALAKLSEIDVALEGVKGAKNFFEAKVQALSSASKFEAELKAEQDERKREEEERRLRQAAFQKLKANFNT
UniProt Q9H4G0, whole entry, looked up: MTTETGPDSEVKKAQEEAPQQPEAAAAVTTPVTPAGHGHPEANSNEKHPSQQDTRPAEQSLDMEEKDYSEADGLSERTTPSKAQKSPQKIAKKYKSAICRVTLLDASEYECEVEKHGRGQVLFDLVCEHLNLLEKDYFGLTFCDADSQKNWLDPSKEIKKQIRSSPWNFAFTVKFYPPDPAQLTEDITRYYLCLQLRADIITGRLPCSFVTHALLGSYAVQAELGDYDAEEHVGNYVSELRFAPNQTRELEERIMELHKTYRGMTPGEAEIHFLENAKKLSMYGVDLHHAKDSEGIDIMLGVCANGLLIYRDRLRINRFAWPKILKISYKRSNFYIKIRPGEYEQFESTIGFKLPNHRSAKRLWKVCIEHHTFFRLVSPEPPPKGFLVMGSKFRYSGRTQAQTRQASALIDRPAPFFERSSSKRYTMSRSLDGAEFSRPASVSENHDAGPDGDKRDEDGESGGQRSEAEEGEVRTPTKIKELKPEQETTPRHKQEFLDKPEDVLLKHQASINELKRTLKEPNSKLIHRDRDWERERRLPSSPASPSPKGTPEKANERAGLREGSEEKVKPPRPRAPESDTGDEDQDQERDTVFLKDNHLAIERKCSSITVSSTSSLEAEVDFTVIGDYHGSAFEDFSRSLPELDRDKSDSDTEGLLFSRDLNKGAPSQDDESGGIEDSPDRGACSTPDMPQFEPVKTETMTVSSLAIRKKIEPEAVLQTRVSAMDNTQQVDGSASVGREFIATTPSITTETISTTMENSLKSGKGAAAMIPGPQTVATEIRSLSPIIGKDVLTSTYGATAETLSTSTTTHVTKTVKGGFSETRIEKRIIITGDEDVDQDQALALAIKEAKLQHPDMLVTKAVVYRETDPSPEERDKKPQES
UniProt Q8N5X7: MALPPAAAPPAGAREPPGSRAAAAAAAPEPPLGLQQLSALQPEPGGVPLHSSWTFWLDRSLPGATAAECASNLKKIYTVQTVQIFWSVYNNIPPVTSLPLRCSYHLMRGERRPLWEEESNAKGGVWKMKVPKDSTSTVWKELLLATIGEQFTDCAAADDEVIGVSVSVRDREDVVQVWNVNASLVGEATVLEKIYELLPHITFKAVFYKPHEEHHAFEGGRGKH
UniProt Q5VUJ9: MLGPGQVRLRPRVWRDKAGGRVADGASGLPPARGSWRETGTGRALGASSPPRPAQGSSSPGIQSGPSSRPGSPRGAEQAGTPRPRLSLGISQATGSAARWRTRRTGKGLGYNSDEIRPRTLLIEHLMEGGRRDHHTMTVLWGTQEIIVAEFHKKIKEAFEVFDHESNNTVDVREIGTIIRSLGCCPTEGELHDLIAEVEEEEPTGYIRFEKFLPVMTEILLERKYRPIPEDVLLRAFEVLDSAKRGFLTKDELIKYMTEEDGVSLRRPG
UniProt P11171, whole entry, looked up: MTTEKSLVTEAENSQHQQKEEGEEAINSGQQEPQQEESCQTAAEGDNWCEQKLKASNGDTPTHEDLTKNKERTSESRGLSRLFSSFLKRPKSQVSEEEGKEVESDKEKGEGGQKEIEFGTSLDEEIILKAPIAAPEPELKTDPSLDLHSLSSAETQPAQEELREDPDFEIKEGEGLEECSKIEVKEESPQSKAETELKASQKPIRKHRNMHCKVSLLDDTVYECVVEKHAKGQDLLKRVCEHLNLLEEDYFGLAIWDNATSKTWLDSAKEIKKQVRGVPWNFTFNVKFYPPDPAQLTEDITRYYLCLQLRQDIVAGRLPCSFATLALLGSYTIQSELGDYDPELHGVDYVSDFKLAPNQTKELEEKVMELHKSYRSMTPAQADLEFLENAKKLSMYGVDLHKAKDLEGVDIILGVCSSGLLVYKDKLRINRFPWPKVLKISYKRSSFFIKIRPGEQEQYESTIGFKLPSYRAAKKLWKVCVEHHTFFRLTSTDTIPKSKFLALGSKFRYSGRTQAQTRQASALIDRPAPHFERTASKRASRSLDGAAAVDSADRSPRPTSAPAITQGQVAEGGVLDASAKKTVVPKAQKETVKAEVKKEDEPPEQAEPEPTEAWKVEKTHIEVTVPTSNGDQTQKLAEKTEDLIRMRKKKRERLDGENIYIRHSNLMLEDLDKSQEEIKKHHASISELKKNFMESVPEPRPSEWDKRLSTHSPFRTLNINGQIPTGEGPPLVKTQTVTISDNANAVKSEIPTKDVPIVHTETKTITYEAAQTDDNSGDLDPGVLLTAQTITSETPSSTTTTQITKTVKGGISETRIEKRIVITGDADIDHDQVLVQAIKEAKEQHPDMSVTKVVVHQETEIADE
UniProt Q8WVE0: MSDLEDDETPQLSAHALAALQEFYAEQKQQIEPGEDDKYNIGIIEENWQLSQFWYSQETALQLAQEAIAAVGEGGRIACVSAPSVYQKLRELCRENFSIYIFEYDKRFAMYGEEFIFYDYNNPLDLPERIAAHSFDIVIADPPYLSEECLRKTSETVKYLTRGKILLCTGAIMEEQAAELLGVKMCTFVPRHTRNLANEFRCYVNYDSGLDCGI
UniProt P0DPD8: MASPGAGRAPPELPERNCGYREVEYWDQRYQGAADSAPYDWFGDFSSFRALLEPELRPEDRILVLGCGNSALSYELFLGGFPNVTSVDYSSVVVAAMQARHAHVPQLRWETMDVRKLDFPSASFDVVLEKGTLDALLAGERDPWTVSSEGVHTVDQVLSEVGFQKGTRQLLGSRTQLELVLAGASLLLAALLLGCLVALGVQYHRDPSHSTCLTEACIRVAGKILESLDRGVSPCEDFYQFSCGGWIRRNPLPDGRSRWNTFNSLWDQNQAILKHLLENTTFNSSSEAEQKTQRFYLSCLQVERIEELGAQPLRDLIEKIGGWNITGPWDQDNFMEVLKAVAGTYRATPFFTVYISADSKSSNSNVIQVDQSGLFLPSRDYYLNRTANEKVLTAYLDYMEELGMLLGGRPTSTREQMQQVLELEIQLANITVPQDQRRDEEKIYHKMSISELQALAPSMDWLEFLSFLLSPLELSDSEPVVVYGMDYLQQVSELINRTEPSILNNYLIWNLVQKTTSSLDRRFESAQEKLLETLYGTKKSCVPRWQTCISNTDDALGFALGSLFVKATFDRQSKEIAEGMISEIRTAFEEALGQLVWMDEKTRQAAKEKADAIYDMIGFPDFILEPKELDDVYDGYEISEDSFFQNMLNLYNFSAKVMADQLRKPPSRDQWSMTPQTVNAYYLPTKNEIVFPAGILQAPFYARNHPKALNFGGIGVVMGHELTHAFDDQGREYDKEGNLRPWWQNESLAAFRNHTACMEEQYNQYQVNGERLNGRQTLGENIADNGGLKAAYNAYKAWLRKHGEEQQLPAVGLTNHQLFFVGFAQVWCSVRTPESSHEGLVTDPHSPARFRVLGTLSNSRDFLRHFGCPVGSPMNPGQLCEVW

Legend:
Test in all cases: log2 fold change, soluble protein after heating vs DMSO (PISA); higher = thermal stabilisation; K562 cells, 10 uM, 30 min; active = over 0.2 and 3.5 SD of the protein, either way, in both replicates (recomputed)
[1] = compound: NC(=O)Nc1cc(-c2cccc(F)c2)sc1C(=O)N[C@H]1CCCNC1
Summary of the method: (§1)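 K562 cells at 2×10^6 cells/mL were exposed to 10 μM compound for 30 min, then aliquots were heated for 3 min across 48°C-58°C, pooled, and extracted in PBS containing 0.5% NP-40 at 4°C. The supernatant after 21,000xg for 90 min was taken as soluble protein and measured by TMTpro 16plex LC-MS/MS with channel sums equalised. Thermal stability is reported relative to control samples, with values from duplicates. Fold changes are given on a log2 scale.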

[2] = compound: NC(=O)c1cnc(N[C@@H]2CCCC[C@@H]2N)nc1Nc1cccc(-n2nccn2)c1
Summary of the method: as §1

[3] = compound: NC1(c2ccc(-c3nc4ccn5c(=O)[nH]nc5c4cc3-c3ccccc3)cc2)CCC1
Summary of the method: as §1

[4] = compound: NCC(=O)Nc1ccc(-n2nc(C(F)(F)F)cc2-c2ccc3c(ccc4ccccc43)c2)cc1
Summary of the method: as §1

entinostat = compound: Nc1ccccc1NC(=O)c1ccc(CNC(=O)OCc2cccnc2)cc1 [entinostat]
Summary of the method: as §1

vorinostat = compound: O=C(CCCCCCC(=O)Nc1ccccc1)NO [vorinostat]
Summary of the method: as §1

citarinostat = compound: O=C(CCCCCCNC(=O)c1cnc(N(c2ccccc2)c2ccccc2Cl)nc1)NO [citarinostat]
Summary of the method: as §1

silmitasertib = compound: O=C(O)c1ccc2c(c1)nc(Nc1cccc(Cl)c1)c1ccncc12 [silmitasertib]
Summary of the method: as §1

[5] = compound: O=C1NC(=O)C(c2cnc3ccccn23)=C1c1cn2c3c(cc(F)cc13)CN(C(=O)N1CCCCC1)CC2
Summary of the method: as §1

[6] = compound: c1cc(OCCN2CCCCC2)cc(-c2n[nH]c3ccc(-c4nnc[nH]4)cc23)c1
Summary of the method: as §1

Measured: log2 fold change

EML2 isoform 3 (UniProt O95834)
inactive: [1] -0.011 | [2] -0.064 | [3] -0.157 | [4] -0.05 | entinostat -0.016 | vorinostat 0.034 | citarinostat -0.004 | silmitasertib -0.026 | [5] 0 | [6] -0.072

ELOVL6 (UniProt Q9H5J4)
inactive: [1] 0.116 | [3] -0.058 | [4] -0.137 | entinostat 0.126 | citarinostat 0.017 | silmitasertib 0.132 | [6] -0.146

ENY2 (UniProt Q9NPA8)
inactive: [1] -0.017 | [2] -0.011 | [3] 0.011 | [4] -0.009 | entinostat 0.002 | vorinostat 0 | citarinostat 0.096 | silmitasertib -0.036 | [5] -0.023 | [6] 0.047

EIF3K (UniProt Q9UBQ5)
inactive: [1] 0.057 | [2] -0.05 | [3] -0.078 | [4] 0.024 | entinostat 0.092 | vorinostat -0.006 | citarinostat 0.021 | silmitasertib 0.008 | [5] -0.019 | [6] -0.01

ELF1 (UniProt P32519)
inactive: [1] -0.124 | [2] -0.044 | entinostat -0.11 | citarinostat -0.089 | [5] -0.075 | [6] -0.18

ENTPD5 (UniProt O75356)
inactive: [1] -0.063 | [2] 0.06 | [3] -0.022 | [4] 0.118 | entinostat -0.015 | citarinostat 0.029 | silmitasertib 0.022 | [5] 0.024 | [6] 0.013

EGR1 (UniProt P18146)
inactive: [1] -0.029 | [2] -0.346 | [3] 0.345 | [4] 0.066 | entinostat 0.091 | vorinostat -0.033 | silmitasertib 0.085 | [5] -0.109

ELP1 (UniProt O95163)
inactive: [1] -0.029 | [2] -0.014 | [3] -0.051 | [4] -0.002 | entinostat -0.019 | vorinostat 0.013 | citarinostat 0.014 | silmitasertib -0.001 | [5] -0.018 | [6] -0.041

EFEMP1 (UniProt Q12805)
inactive: [1] -0.186 | [2] -0.057 | entinostat 0.052 | vorinostat 0.245

EEF1A1 (UniProt P68104)
inactive: [1] -0.046 | [2] 0.084 | [3] 0.091 | [4] 0.191 | entinostat -0.017 | citarinostat -0.04 | silmitasertib -0.11 | [5] 0.023 | [6] 0.07

EEF1A1P5 (UniProt Q5VTE0)
inactive: [1] -0.005 | [2] -0.018 | [3] -0.141 | [4] -0.025 | entinostat 0.004 | vorinostat 0.005 | citarinostat 0.042 | silmitasertib 0 | [5] -0.024 | [6] -0.073

EHMT1 (UniProt Q9H9B1)
inactive: [1] 0.057 | [2] -0.09 | [3] -0.311 | [4] -0.017 | entinostat 0.059 | vorinostat -0.122 | silmitasertib 0.092 | [5] -0.043

EIF4H isoform 2 (UniProt Q15056)
inactive: [2] -0.442 | vorinostat -0.166

ENTPD4 (UniProt Q9Y227)
inactive: [1] 0.04 | entinostat -0.025 | vorinostat -0.138 | citarinostat -0.247 | [5] -0.059 | [6] -0.1

EEF2K (UniProt O00418)
inactive: [3] -0.119 | [4] -0.114 | vorinostat 0.19 | citarinostat -0.05 | silmitasertib 0.216 | [5] 0.178 | [6] 0.012

EIF2AK3 (UniProt Q9NZJ5)
inactive: [2] 0.056 | [3] -0.211 | vorinostat -0.02 | citarinostat -0.039 | silmitasertib -0.085 | [5] 0.127 | [6] 0.097

EIF2B4 (UniProt Q9UI10)
inactive: [2] 0.076 | [3] -0.125 | [4] -0.109 | vorinostat 0.027 | citarinostat -0.033 | silmitasertib 0.05 | [5] 0.049 | [6] -0.139

ENKD1 (UniProt Q9H0I2)
inactive: [4] -0.12 | vorinostat 0.11 | citarinostat -0.109 | [6] -0.06

EIF4G1 (UniProt Q04637)
inactive: [2] -0.14 | [4] -0.075 | vorinostat 0.085

ENTPD7 (UniProt Q9NQZ7)
inactive: [1] 0.024 | [3] -0.052 | entinostat 0.236 | citarinostat 0.131 | silmitasertib -0.357 | [5] -0.098 | [6] -0.138

ENTR1 (UniProt Q96C92)
inactive: [4] -0.284

ENPP2 isoform 2 (UniProt Q13822)
inactive: [5] 0.095

EML5 isoform 5 (UniProt Q05BV3)
inactive: [2] -0.101 | [3] -0.121 | [4] -0.096 | silmitasertib 0.033

EFHD1 (UniProt Q9BUP0)
inactive: [1] -0.118 | [4] -0.019 | entinostat 0.026 | vorinostat 0 | [5] -0.013

ENO2 (UniProt U3KQQ1)
inactive: [1] -0.291 | entinostat -0.336 | vorinostat -0.605

EPB41L1 (UniProt Q9H4G0)
inactive: [2] 0.156 | [3] -0.017 | [4] 0.118 | vorinostat -0.007 | citarinostat -0.027 | silmitasertib 0.022 | [5] 0.018 | [6] -0.132

EHBP1 (UniProt Q8NDI1)
inactive: [2] -0.092 | [3] 0.017 | vorinostat -0.034 | citarinostat -0.009 | silmitasertib 0.087 | [6] -0.14

EIF3I (UniProt Q5TFK1)
inactive: [2] -0.139

ELOA (UniProt Q14241)
inactive: [3] 0.187 | vorinostat -0.105 | citarinostat -0.066 | silmitasertib -0.006 | [5] -0.292 | [6] -0.01

ENAH (UniProt Q8N8S7)
inactive: [4] -0.506 | vorinostat 0.083

EIF4E3 (UniProt Q8N5X7)
inactive: citarinostat -0.006 | [6] -0.044

EIF4B (UniProt F8VP89)
inactive: [2] 0.052 | [3] 0.025 | vorinostat -0.178 | citarinostat -0.033 | silmitasertib -0.048 | [6] 0.056

EIF5A2 (UniProt Q9GZV4)
inactive: [2] -0.163 | [3] -0.126 | silmitasertib 0.105

EEF1AKMT2 (UniProt Q5JPI9)
inactive: [1] -0.148 | [3] 0.039 | entinostat -0.05 | citarinostat -0.004 | silmitasertib 0.028 | [6] -0.03

EIF1B (UniProt O60739)
inactive: [1] -0.098 | [3] 0.129 | entinostat 0.12 | citarinostat -0.053 | silmitasertib 0.015 | [5] -0.342 | [6] -0.058

EIF3E (UniProt E5RIT4)
inactive: [5] -0.228

EFCAB2 (UniProt Q5VUJ9)
inactive: [2] -0.112 | vorinostat -0.083 | citarinostat 0.058 | [6] 0.003

EEF1D isoform 3 (UniProt P29692)
inactive: [3] 0.2 | silmitasertib -0.401

Taken from above (8 entries):
ELOA (UniProt Q14241)
inactive: [3] 0.187 | vorinostat -0.105 | citarinostat -0.066 | silmitasertib -0.006 | [5] -0.292 | [6] -0.01

ENAH (UniProt Q8N8S7)
inactive: [4] -0.506 | vorinostat 0.083

EIF4E3 (UniProt Q8N5X7)
inactive: citarinostat -0.006 | [6] -0.044

EIF4B (UniProt F8VP89)
inactive: [2] 0.052 | [3] 0.025 | vorinostat -0.178 | citarinostat -0.033 | silmitasertib -0.048 | [6] 0.056

EIF5A2 (UniProt Q9GZV4)
inactive: [2] -0.163 | [3] -0.126 | silmitasertib 0.105

EEF1AKMT2 (UniProt Q5JPI9)
inactive: [1] -0.148 | [3] 0.039 | entinostat -0.05 | citarinostat -0.004 | silmitasertib 0.028 | [6] -0.03

EIF1B (UniProt O60739)
inactive: [1] -0.098 | [3] 0.129 | entinostat 0.12 | citarinostat -0.053 | silmitasertib 0.015 | [5] -0.342 | [6] -0.058

EIF3E (UniProt E5RIT4)
inactive: [5] -0.228

Later entries.

EID1 (UniProt Q9Y6B2)
inactive: [1] -0.078 | [3] -0.055 | entinostat 0.086 | vorinostat -0.457 | silmitasertib -0.156 | [5] -0.652

EPB41 isoform 4 (UniProt P11171)
inactive: [3] 0.015 | vorinostat 0.234 | silmitasertib -0.099

ELAVL4 (UniProt P26378)
inactive: vorinostat 0.026 | citarinostat -0.106 | [6] -0.148

ELOVL7 (UniProt A1L3X0)
inactive: [2] -0.001 | [5] -0.09

EEF1AKMT1 (UniProt Q8WVE0)
inactive: [5] 0.07

ELK1 (UniProt P19419)
inactive: vorinostat -0.06

EEF1AKMT4-ECE2 (UniProt P0DPD8)
inactive: [1] -0.058 | entinostat 0.251
